Measured values taken from article doi:10.1101/480996.
No constants are given. Whether binding was seen depends on the method and setting. Binding seen in cells or lysates may run through a third protein. Some entries that bind do so weakly or less than the wild type. For part of these data: Where a sequence is shown, tags or fusion partners need not be part of it.

Chains of the proteins cited; added tags and fusions are not shown.
UniProt Q12446: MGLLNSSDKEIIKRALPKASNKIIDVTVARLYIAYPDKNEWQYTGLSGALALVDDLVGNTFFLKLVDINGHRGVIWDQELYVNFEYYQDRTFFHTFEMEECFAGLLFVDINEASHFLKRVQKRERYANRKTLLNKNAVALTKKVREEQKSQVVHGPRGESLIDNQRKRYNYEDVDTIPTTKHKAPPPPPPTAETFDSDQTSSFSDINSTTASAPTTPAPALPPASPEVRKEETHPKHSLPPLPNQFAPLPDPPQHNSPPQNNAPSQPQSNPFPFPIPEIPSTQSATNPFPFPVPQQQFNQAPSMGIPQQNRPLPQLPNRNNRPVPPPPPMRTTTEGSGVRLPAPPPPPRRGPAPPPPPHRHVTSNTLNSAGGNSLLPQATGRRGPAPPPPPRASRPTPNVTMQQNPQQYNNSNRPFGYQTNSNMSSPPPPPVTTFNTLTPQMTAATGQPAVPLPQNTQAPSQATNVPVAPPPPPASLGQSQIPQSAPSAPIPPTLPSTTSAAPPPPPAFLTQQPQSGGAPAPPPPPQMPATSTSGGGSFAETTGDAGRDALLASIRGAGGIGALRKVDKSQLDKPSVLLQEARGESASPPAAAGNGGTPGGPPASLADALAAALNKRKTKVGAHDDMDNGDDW

Legend:
Experiment in all cases: FRET or BRET
[1] = target: T1, Sla1, C-terminally tagged (GFP/mCherry screen) (S. cerevisiae) (UniProt P32790)
T1 sequence: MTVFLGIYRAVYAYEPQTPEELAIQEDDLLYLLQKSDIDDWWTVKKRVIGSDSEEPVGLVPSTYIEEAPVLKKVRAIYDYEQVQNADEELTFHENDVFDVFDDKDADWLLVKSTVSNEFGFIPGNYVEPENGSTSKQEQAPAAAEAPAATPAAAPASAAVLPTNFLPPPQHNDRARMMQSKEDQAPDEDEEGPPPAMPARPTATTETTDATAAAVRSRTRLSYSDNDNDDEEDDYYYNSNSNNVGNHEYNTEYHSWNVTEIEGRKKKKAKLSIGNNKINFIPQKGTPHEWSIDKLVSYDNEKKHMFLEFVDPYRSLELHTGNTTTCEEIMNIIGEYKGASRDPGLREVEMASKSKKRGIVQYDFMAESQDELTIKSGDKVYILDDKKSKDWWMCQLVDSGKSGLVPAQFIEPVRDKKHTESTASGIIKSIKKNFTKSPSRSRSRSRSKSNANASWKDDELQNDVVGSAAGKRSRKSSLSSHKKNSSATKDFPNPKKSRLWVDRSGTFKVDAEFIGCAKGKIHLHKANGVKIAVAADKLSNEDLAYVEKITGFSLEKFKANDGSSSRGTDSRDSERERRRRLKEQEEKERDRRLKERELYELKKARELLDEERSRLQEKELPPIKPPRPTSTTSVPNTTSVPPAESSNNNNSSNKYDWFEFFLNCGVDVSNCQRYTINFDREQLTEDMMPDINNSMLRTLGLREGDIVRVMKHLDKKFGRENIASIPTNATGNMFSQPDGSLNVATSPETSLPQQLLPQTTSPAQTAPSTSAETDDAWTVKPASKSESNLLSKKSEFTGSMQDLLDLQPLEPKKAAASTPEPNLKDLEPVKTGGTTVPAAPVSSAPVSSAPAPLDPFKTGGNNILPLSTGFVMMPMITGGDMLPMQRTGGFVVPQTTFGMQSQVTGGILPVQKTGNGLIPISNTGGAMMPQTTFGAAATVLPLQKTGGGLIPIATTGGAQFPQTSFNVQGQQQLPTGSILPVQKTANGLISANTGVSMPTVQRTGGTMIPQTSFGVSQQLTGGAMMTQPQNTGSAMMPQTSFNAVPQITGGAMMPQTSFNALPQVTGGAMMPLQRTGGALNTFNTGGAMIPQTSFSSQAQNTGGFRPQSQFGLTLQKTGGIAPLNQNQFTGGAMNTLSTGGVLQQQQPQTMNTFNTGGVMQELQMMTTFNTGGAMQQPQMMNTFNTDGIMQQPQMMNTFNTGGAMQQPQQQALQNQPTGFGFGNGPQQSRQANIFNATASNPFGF

[2] = target: T2, Sla1, N-terminally tagged with mNeonGreen (S. cerevisiae) (UniProt P32790)
T2 sequence: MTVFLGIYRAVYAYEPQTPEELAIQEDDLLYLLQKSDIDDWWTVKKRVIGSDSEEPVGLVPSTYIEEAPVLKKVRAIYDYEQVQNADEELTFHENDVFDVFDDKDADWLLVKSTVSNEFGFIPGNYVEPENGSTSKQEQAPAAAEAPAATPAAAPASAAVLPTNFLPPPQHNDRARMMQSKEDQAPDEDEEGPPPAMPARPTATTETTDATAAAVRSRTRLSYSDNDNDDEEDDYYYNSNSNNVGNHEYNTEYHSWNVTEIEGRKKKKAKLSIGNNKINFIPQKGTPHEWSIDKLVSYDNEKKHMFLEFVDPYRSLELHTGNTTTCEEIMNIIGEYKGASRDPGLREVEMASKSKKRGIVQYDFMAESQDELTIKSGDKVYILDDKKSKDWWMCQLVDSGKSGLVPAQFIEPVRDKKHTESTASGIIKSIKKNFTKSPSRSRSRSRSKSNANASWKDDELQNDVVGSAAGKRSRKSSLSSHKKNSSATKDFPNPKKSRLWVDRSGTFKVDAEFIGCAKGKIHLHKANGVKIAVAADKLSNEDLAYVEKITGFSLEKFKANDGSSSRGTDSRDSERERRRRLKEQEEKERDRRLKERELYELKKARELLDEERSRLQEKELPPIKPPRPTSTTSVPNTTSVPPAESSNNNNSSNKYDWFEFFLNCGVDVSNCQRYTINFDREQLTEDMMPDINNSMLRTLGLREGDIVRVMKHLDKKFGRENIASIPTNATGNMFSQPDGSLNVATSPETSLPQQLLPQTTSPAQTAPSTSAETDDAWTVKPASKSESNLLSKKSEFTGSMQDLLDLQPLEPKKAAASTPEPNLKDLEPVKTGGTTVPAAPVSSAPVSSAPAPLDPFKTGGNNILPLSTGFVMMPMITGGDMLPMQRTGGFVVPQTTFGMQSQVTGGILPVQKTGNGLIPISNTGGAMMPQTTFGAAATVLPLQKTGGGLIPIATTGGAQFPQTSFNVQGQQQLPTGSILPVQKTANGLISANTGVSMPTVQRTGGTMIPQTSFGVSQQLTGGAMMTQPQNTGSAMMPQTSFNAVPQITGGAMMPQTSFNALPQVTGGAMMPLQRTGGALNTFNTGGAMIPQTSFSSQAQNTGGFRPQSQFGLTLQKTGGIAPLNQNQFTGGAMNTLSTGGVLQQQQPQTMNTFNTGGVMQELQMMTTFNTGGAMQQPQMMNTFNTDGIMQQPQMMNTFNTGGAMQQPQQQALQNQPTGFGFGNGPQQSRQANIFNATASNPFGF

[3] = target: T3, Sla1-mNeonGreen (S. cerevisiae) (UniProt P32790)
T3 sequence: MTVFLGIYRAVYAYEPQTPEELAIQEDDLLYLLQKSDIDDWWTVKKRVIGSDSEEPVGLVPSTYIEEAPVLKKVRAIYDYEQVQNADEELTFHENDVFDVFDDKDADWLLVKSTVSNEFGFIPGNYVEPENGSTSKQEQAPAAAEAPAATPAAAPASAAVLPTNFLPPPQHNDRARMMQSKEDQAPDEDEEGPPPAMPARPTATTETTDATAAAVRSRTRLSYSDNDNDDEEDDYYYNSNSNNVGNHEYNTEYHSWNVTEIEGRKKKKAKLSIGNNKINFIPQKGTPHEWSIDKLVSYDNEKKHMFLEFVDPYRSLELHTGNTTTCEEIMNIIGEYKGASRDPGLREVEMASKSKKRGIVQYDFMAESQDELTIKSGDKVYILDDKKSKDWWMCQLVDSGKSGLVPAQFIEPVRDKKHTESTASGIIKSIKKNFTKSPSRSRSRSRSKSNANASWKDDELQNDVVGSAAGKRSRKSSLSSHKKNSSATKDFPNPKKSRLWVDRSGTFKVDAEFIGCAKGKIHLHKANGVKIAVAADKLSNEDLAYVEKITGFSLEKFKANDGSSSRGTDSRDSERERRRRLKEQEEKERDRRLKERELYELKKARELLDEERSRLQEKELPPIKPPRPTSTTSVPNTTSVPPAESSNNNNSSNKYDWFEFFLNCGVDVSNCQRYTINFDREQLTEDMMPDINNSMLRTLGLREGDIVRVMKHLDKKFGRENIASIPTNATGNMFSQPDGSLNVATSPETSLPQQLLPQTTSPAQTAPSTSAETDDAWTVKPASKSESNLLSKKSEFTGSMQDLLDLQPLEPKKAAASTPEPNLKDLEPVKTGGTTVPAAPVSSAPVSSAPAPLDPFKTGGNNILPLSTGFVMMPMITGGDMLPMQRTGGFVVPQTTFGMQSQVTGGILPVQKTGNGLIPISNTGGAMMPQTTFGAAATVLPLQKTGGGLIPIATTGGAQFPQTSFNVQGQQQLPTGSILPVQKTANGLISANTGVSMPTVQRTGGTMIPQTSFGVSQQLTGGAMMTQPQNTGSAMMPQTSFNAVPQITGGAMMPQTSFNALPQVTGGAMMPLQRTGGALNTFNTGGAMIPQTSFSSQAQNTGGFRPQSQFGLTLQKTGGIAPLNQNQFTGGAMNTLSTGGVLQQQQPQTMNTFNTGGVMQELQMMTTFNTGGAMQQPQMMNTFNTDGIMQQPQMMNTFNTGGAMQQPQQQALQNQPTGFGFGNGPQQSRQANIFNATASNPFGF

binding [1] | binding [2] | binding [3] | Substance
binds |  |  | Las17, C-terminally tagged (from UniProt Q12446 1-633)
 | binds | binds | Las17, N-terminally tagged with mTurquoise2 (from UniProt Q12446 1-633)
